Taken from: PubChem BioAssay AID652243 (Drosophila RNAi Screening Center, 2013)
Screen: 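Knock-downs that decrease or increase androgen receptor reporter signal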 (primary screen). Cell system: Drosophila S2R+ cells. Reagent: long dsRNA against Drosophila genes. Timing: 72 h (48 h, then 24 h hormone). Treatment: synthetic androgen R1881 at 10 nM for 24 h. Detection: 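Per-well raw luminescence of the androgen-driven firefly reporter and of the Renilla control, two replicates each, without normalisation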. Reading the numbers: firefly reporter light: higher = more light from androgen-responsive reporter; Renilla control light: higher = more constitutive control signal (cell number, transfection). Active means: 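Across duplicate plates, a knock-down whose log firefly/Renilla ratio shifted a set fold down or up from the GFP/LacZ control mean was a hit; the downward cut appears as both 1.5 and 3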. Meaning of the calls: active = hit: reporter lowered or raised; inactive = no hit.
In all, the deposit lists about 24,000 reagents; below is an unselected part of those with a known target gene and a result. Over the whole deposit, 246 (1%) got an active call. 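Plates not normalised; calls are printed but the firefly/Renilla ratio behind them is not deposited; fold cut for lowering reported inconsistently.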 Raw values vary from plate to plate and are shown uncorrected. Reagent sequences are not shown. Not stated in the record: the amount of reagent.

Target gene | amplicon | firefly reporter light, replicate 1 | firefly reporter light, replicate 2 | Renilla control light, replicate 1 | Renilla control light, replicate 2 | Call
CalpA (Calpain-A) | DRSC07352 | 92086 | 1.38e5 | 1.32e6 | 1.84e6 | inactive
Ctu1 (Cytosolic thiouridylase subunit 1) | DRSC07069 | 1.48e5 | 1.09e5 | 1.28e6 | 8.28e5 | active
Nlp (Nucleoplasmin) | DRSC16759 | 56124 | 45279 | 6.82e5 | 4.17e5 | inactive
Nlp (Nucleoplasmin) | DRSC26421 | 2.27e5 | 3.09e5 | 4.11e5 | 7.05e5 | inactive
CG31709 | DRSC01081 | 1.99e5 | 2.21e5 | 4.79e5 | 4.25e5 | inactive
CG31709 | DRSC27731 | 2.37e5 | 3.60e5 | 5.11e5 | 7.58e5 | inactive
CG33627 | DRSC38875 | 1.20e6 | 8.42e5 | 2.61e6 | 1.91e6 | inactive
PTP-ER (Protein tyrosine phosphatase-ERK/Enhancer of Ras1) | DRSC04636 | 7.98e5 | 8.94e5 | 2.00e6 | 2.62e6 | inactive
PTP-ER (Protein tyrosine phosphatase-ERK/Enhancer of Ras1) | DRSC23325 | 4.71e5 | 5.20e5 | 6.03e5 | 6.70e5 | inactive
PTP-ER (Protein tyrosine phosphatase-ERK/Enhancer of Ras1) | DRSC28263 | 4.74e5 | 7.80e5 | 9.86e5 | 1.43e6 | inactive
Acp24A4 (Accessory gland protein 24A4) | DRSC22352 | 8.85e5 | 9.34e5 | 1.20e6 | 8.53e5 | inactive
Vta1 (Vesicle trafficking 1) | DRSC08604 | 4.94e5 | 5.53e5 | 2.74e6 | 2.69e6 | inactive
Vta1 (Vesicle trafficking 1) | DRSC22848 | 3.45e5 | 8.09e5 | 1.20e6 | 2.16e6 | inactive
RpS18 (Ribosomal protein S18) | DRSC07540 | 83339 | 59424 | 1.02e6 | 6.42e5 | inactive
asun (asunder) | DRSC16733 | 42497 | 52517 | 2.67e5 | 3.81e5 | inactive
CG14153 | DRSC10155 | 3.26e5 | 2.59e5 | 3.91e6 | 3.32e6 | inactive
CG14153 | DRSC22595 | 8.47e5 | 7.05e5 | 1.07e6 | 1.31e6 | inactive
CG16953 | DRSC15167 | 1.42e5 | 1.32e5 | 6.82e5 | 7.71e5 | inactive
CG12003 | DRSC08214 | 1.47e5 | 1.40e5 | 1.96e6 | 1.45e6 | inactive
Dup99B (Ductus ejaculatorius peptide 99B) | DRSC22877 | 4.02e5 | 6.20e5 | 9.75e5 | 1.45e6 | inactive
Dup99B (Ductus ejaculatorius peptide 99B) | DRSC29633 | 3.91e5 | 4.59e5 | 1.19e6 | 1.19e6 | inactive
RYa-R (RYamide receptor) | DRSC16757 | 2.14e5 | 1.76e5 | 7.56e5 | 8.27e5 | inactive
CG31077 | DRSC13805 | 1.17e5 | 1.58e5 | 2.04e5 | 3.51e5 | inactive
CG31077 | DRSC23916 | 6.64e5 | 4.60e5 | 6.86e5 | 7.59e5 | inactive
Cad96Ca (Cadherin 96Ca) | DRSC14220 | 1.11e5 | 1.13e5 | 1.90e6 | 1.85e6 | inactive
Cad96Ca (Cadherin 96Ca) | DRSC16693 | 2.08e5 | 2.51e5 | 2.02e6 | 2.21e6 | inactive
Cad96Ca (Cadherin 96Ca) | DRSC36738 | – | – | – | – | inactive
Cad96Ca (Cadherin 96Ca) | DRSC36739 | – | – | – | – | inactive
Mpv17 (Mitochondrial inner membrane protein MPV17) | DRSC17198 | 3.43e5 | 3.86e5 | 3.92e6 | 3.54e6 | inactive
CG14096 | DRSC26975 | 5.62e5 | 4.96e5 | 1.13e6 | 8.68e5 | inactive
CG15011 | DRSC08464 | 9.25e5 | 8.96e5 | 1.34e6 | 1.43e6 | inactive
tio (tiptop) | DRSC03739 | 1.99e5 | 1.15e5 | 1.64e6 | 7.37e5 | inactive
mute (muscle wasted) | DRSC06562 | 55765 | 82792 | 1.17e6 | 1.17e6 | inactive
mute (muscle wasted) | DRSC22931 | 4.18e5 | 7.47e5 | 9.47e5 | 1.52e6 | inactive
mute (muscle wasted) | DRSC29848 | 4.68e5 | 4.01e5 | 1.26e6 | 1.26e6 | inactive
Cdc23 (Cell division cycle 23) | DRSC02708 | 8.19e5 | 1.10e6 | 1.25e6 | 2.11e6 | inactive
CG6867 | DRSC20013 | 8.07e5 | 9.22e5 | 1.79e6 | 2.24e6 | inactive
CG6867 | DRSC25889 | 2.92e5 | 2.89e5 | 7.91e5 | 7.02e5 | inactive
nw (narrow) | DRSC06451 | 1.85e5 | 1.69e5 | 3.18e6 | 3.18e6 | inactive
nw (narrow) | DRSC06749 | 1.04e6 | 7.54e5 | 6.78e5 | 5.95e5 | inactive
nw (narrow) | DRSC06896 | 1.25e5 | 1.01e5 | 1.35e6 | 1.35e6 | inactive
nw (narrow) | DRSC25619 | 7.93e5 | 9.15e5 | 9.63e5 | 1.19e6 | inactive
nw (narrow) | DRSC29422 | 5.16e5 | 5.30e5 | 1.69e6 | 1.69e6 | inactive

Records above whose target name starts with P or p:
Target gene | amplicon | firefly reporter light, replicate 1 | firefly reporter light, replicate 2 | Renilla control light, replicate 1 | Renilla control light, replicate 2 | Call
PTP-ER (Protein tyrosine phosphatase-ERK/Enhancer of Ras1) | DRSC04636 | 7.98e5 | 8.94e5 | 2.00e6 | 2.62e6 | inactive
PTP-ER (Protein tyrosine phosphatase-ERK/Enhancer of Ras1) | DRSC23325 | 4.71e5 | 5.20e5 | 6.03e5 | 6.70e5 | inactive
PTP-ER (Protein tyrosine phosphatase-ERK/Enhancer of Ras1) | DRSC28263 | 4.74e5 | 7.80e5 | 9.86e5 | 1.43e6 | inactive
